Reference: patent publication JP2001333780A
These are yes or no findings as the source states them, for the method shown. Some results given as binding are weak or reduced against the parent protein; the word gives no strength.

Biological target: 上皮細胞増殖因子レセプター(EGFR) (UniProt P00533)
Experiment: competition ELISA with HRP-labelled B4G7 on formalin-fixed A431 cells

- binding: binds
B1: マウス改変型(BB型) 一本鎖抗体 (scFv)
scFv: MGHHHHHHQVQLQQSGAELVRPGASVKLSCTASGFNIKDTLMHWVKQRPEQGLEWIGWIDPEDGNTKYVRKFQGKATITADTSSNTAYLQVSSLTSEDTAIYYCVRGGSYGNWAYWGQGTTVTVSSGGGGSGGGGSGGGGSDIELTQSPASLSASVGETVTITCRTSENIYSYFAWYQQKQGKSPHLLVYNAKTLAEGVPSRFSGSGSGTQFSLKINSLQPEDFGIYFCQHHYGSLHTFGGGTKLEIKHHHHHHGGGS
